# Results published in US20100222337A1, “FUNGICIDAL COMPOSITION CONTAINING CARBOXYLIC ACID AMIDE DERIVATIVE” (Ishihara Sangyo Kaisha, Ltd., priority 2005, published 2010).
# Some results were stated once for a whole list of compounds, not compound by compound.
# System: Botrytis cinerea
# Experiment: Test on preventive effect against kidney bean gray mold
# Format: in vivo
# Conditions: 500 ppm, spray on kidney bean (Taisyou Kintoki), 3 to 4 days after inoculation
row,Compound,controlling index (length of lesions)
1,CCOc1ccc(C(=O)C(C)(C)NC(=O)c2ncccc2C(F)(F)F)c(C)c1 [1-8],"4 (Length of lesions, number of lesions or area of sporulation is less than 10% of non-treated plot)"
2,Cc1cc(OC(C)C)ccc1C(=O)C(C)(C)NC(=O)c1ncccc1C(F)(F)F [1-10],"4 (Length of lesions, number of lesions or area of sporulation is less than 10% of non-treated plot)"
3,Cc1cc(OC(C)C)ccc1C(=O)C(C)(C)NC(=O)c1ncccc1Cl [1-15],"4 (Length of lesions, number of lesions or area of sporulation is less than 10% of non-treated plot)"
4,Cc1cc(OC(C)C)ccc1C(=O)C(C)(C)NC(=O)c1ncccc1C [1-16],"4 (Length of lesions, number of lesions or area of sporulation is less than 10% of non-treated plot)"
5,Cc1cc(OC(C)C)ccc1C(=O)C(C)(C)NC(=O)c1cccnc1Br [1-18],"4 (Length of lesions, number of lesions or area of sporulation is less than 10% of non-treated plot)"
6,CCCCCCOc1cccc(C(=O)C(C)(C)NC(=O)c2ncccc2C(F)(F)F)c1 [1-34],"4 (Length of lesions, number of lesions or area of sporulation is less than 10% of non-treated plot)"
7,CCCCOc1cccc(C(=O)C(C)(C)NC(=O)c2ncccc2C(F)(F)F)c1C [1-49],"4 (Length of lesions, number of lesions or area of sporulation is less than 10% of non-treated plot)"
8,CC(C)(NC(=O)c1ncccc1C(F)(F)F)C(=O)c1ccc(Cl)cc1 [1-61],"4 (Length of lesions, number of lesions or area of sporulation is less than 10% of non-treated plot)"
9,Cc1cc(OC(F)F)ccc1C(=O)C(C)(C)NC(=O)c1ncccc1C(F)(F)F [1-62],"4 (Length of lesions, number of lesions or area of sporulation is less than 10% of non-treated plot)"
10,CC(C)(NC(=O)c1ncccc1C(F)(F)F)C(=O)c1ccc(Oc2ccccc2)cc1 [1-64],"4 (Length of lesions, number of lesions or area of sporulation is less than 10% of non-treated plot)"
11,CCCCCc1ccc(C(=O)C(C)(C)NC(=O)c2ncccc2C(F)(F)F)cc1 [1-68],"4 (Length of lesions, number of lesions or area of sporulation is less than 10% of non-treated plot)"
12,CCCCCCOc1cccc(C(=O)C(C)(C)NC(=O)c2ncccc2C(F)(F)F)c1C [1-69],"4 (Length of lesions, number of lesions or area of sporulation is less than 10% of non-treated plot)"
13,COCCOc1ccc(C(=O)C(C)(C)NC(=O)c2ncccc2C(F)(F)F)cc1 [1-70],"4 (Length of lesions, number of lesions or area of sporulation is less than 10% of non-treated plot)"
14,CC(C)CCOc1ccc(C(=O)C(C)(C)NC(=O)c2ncccc2C(F)(F)F)cc1 [1-81],"4 (Length of lesions, number of lesions or area of sporulation is less than 10% of non-treated plot)"
15,CCCCCC(C)Oc1ccc(C(=O)C(C)(C)NC(=O)c2cccnc2Cl)cc1 (centres unmarked) [1-99],"4 (Length of lesions, number of lesions or area of sporulation is less than 10% of non-treated plot)"
16,CCCCC(CC)Oc1ccc(C(=O)C(C)(C)NC(=O)c2cccnc2Cl)cc1 (centres unmarked) [1-100],"4 (Length of lesions, number of lesions or area of sporulation is less than 10% of non-treated plot)"
17,CCCCC(C)Oc1ccc(C(=O)C(C)(C)NC(=O)c2ncccc2C(F)(F)F)c(C)c1 (centres unmarked) [1-105],"4 (Length of lesions, number of lesions or area of sporulation is less than 10% of non-treated plot)"
18,CCCC(CC)Oc1ccc(C(=O)C(C)(C)NC(=O)c2ncccc2C(F)(F)F)c(C)c1 (centres unmarked) [1-106],"4 (Length of lesions, number of lesions or area of sporulation is less than 10% of non-treated plot)"
19,CCCCCOc1ccc(C(=O)C(C)(C)NC(=O)c2ncccc2C(F)(F)F)cc1 [1-113],"4 (Length of lesions, number of lesions or area of sporulation is less than 10% of non-treated plot)"
20,Cc1cc(Cl)ccc1C(=O)C(C)(C)NC(=O)c1ncccc1C(F)(F)F [compound No. 1-1],"4 (Length of lesions, number of lesions or area of sporulation is less than 10% of non-treated plot)"
21,CC(C)(NC(=O)c1ncccc1C(F)(F)F)C(=O)c1ccc(Br)cc1 [compound No. 1-7],"4 (Length of lesions, number of lesions or area of sporulation is less than 10% of non-treated plot)"
22,"CC(C)(NC(=O)c1ncccc1C(F)(F)F)C(=O)c1ccc(OC2CCCC2)cc1 [compound No. 1-72, N-[(4′-cyclopentyloxy-1,1-dimethyl)phenacyl]-3-trifluoromethyl-2-pyridinecarboxamide]","4 (Length of lesions, number of lesions or area of sporulation is less than 10% of non-treated plot)"
23,"CCCCCC(C)Oc1ccc(C(=O)C(C)(C)NC(=O)c2ncccc2C(F)(F)F)cc1 (centres unmarked) [compound No. 1-119, N-[[4′-(2-heptyloxy)-1,1-dimethyl]phenacyl]-3-trifluoromethyl-2-pyridinecarboxamide]","4 (Length of lesions, number of lesions or area of sporulation is less than 10% of non-treated plot)"
